Experimental data published in patent US7238473.
For at least one entry, the source does not settle the construct or the ends of the probe. Where cells or extracts were used, other partners may take part. For some assays here: No signal at the amounts used counts as a negative. Tags and fusion partners may be left off the protein sequences shown.

Assays:
Assay in all cases: binding assay
[1] = tested on: T1, XC3H-4 full length (Xenopus laevis); conditions: UV cross-linking; protein in a lysate after overexpression; protein details: C-terminal HA (Xenopus oocyte extract); label: 32P-UTP
T1 sequence: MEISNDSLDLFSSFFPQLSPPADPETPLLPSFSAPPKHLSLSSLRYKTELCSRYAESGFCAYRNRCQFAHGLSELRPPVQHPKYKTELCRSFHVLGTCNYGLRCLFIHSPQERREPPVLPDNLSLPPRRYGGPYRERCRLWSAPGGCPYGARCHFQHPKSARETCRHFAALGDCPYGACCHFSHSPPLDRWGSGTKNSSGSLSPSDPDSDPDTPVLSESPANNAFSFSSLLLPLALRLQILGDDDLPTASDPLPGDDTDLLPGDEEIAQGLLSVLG

[2] = target: T2, cMG1 (TIS11b/ERF1 homologue) (Rattus norvegicus) (UniProt P17431); conditions: UV cross-linking; EMSA also positive (p256); protein in a lysate after overexpression; protein details: C-terminal HA; label: 32P-UTP
T2 sequence (looked up, limits assumed): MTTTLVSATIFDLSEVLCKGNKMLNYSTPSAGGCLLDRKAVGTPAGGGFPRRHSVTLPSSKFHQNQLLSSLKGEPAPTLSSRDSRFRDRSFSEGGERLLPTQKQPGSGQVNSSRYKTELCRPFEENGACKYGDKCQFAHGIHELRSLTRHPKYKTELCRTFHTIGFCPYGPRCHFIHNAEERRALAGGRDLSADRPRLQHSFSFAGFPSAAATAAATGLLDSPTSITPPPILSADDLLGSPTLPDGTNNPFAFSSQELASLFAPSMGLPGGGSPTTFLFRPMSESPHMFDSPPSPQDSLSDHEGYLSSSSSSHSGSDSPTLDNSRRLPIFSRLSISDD

U2AF35 (Homo sapiens) = target: T3, U2AF35 (Homo sapiens) (UniProt Q01081); conditions: UV cross-linking and EMSA; protein in a lysate after overexpression; label: 32P-UTP
T3 sequence (looked up, limits assumed): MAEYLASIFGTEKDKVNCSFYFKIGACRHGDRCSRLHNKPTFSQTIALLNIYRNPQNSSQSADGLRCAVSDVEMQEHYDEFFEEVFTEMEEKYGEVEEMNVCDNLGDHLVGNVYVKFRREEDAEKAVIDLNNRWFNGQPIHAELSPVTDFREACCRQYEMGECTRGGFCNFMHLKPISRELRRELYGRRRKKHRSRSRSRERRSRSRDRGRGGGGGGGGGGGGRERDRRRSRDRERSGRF

[3] = tested on: T4, XC3H-4(121-276) (Xenopus laevis); conditions: UV cross-linking; protein in a lysate after overexpression; protein details: C-terminal HA (oocyte extract); label: 32P-UTP
T4 sequence: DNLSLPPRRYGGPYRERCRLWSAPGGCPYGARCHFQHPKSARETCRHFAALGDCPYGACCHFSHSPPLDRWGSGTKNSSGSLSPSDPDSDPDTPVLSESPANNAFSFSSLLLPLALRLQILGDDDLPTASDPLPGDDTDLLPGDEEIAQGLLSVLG

[4] = target: T5, TTP(97-326) (Homo sapiens) (UniProt P26651); conditions: UV cross-linking; protein in a lysate after overexpression; protein details: C-terminal HA; label: 32P-UTP
T5 sequence: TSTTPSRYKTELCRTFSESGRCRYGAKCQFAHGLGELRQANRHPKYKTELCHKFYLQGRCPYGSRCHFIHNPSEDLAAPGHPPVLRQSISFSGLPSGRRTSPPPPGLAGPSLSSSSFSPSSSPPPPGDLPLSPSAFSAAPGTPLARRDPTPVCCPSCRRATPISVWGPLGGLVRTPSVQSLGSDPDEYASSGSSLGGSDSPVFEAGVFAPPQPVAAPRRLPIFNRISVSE

## CUCUAUUUAUAUUUGCACUUAUUAUUUAUUAUUUAUUUAUUAUUUAUUUAUUUGCUUAUGAAUGUAUUUA [TNFa ARE probe 1281-1350]
[1]
  binding result: binds
[2]
  binding result: binds
U2AF35 (Homo sapiens)
  binding result: no binding
[3]
  binding result: no binding
[4]
  binding result: binds
